Assay results from publication doi:10.1101/2023.01.07.523122.
These are yes or no findings as the source states them, for the method shown. In cells and extracts the contact can be indirect. Some results given as binding are weak or reduced against the parent protein; the word gives no strength. Sequences can lack the tags named with a protein.

T1: mKate2::3xFLAG::DRL-1 (C. elegans) (UniProt Q86ME2)
T1 sequence: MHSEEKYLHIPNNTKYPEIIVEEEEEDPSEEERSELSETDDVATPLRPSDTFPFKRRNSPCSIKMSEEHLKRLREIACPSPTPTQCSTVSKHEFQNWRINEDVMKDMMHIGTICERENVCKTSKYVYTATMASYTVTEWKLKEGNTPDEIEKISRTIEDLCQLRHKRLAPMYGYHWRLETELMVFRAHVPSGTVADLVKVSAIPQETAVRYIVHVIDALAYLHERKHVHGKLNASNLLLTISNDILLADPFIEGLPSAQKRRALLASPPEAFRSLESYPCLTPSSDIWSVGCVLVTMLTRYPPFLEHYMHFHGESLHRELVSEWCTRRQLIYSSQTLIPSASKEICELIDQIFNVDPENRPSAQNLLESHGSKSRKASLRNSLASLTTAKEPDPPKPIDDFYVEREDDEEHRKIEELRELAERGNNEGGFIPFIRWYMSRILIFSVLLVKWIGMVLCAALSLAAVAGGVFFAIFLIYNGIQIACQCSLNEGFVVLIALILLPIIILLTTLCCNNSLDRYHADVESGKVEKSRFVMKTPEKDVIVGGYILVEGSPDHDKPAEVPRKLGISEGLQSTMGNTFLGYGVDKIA

T2: 3xHA::mGL::FLR-4 (C. elegans) (UniProt Q9NLA1)
T2 sequence: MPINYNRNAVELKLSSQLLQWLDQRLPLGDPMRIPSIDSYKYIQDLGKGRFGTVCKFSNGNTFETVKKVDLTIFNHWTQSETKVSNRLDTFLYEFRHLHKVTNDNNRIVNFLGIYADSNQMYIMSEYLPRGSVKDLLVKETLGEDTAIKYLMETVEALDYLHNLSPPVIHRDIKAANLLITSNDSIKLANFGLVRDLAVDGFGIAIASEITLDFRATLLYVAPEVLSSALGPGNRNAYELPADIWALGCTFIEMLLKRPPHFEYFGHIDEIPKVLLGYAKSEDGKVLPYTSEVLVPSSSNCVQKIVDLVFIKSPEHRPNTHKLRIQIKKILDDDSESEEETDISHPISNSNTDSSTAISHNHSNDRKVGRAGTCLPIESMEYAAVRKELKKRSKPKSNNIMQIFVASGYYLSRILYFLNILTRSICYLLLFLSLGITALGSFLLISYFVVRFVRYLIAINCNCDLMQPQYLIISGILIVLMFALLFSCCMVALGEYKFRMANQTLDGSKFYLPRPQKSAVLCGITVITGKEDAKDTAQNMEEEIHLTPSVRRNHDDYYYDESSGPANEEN


Assays:
[1] = molecular target: T1, mKate2::3xFLAG::DRL-1 (C. elegans); experiment: co-IP
[2] = molecular target: T2, 3xHA::mGL::FLR-4 (C. elegans); experiment: co-IP

binding [1] | binding [2] | Binder
binds | – | 3xHA::mGL::FLR-4 (enzyme, UniProt Q9NLA1 1-570) MPINYNRNAVELKLSSQLLQWLDQRLPLGDPMRIPSIDSYKYIQDLGKGRFGTVCKFSNGNTFETVKKVDLTIFNHWTQSETKVSNRLDTFLYEFRHLHKVTNDNNRIVNFLGIYADSNQMYIMSEYLPRGSVKDLLVKETLGEDTAIKYLMETVEALDYLHNLSPPVIHRDIKAANLLITSNDSIKLANFGLVRDLAVDGFGIAIASEITLDFRATLLYVAPEVLSSALGPGNRNAYELPADIWALGCTFIEMLLKRPPHFEYFGHIDEIPKVLLGYAKSEDGKVLPYTSEVLVPSSSNCVQKIVDLVFIKSPEHRPNTHKLRIQIKKILDDDSESEEETDISHPISNSNTDSSTAISHNHSNDRKVGRAGTCLPIESMEYAAVRKELKKRSKPKSNNIMQIFVASGYYLSRILYFLNILTRSICYLLLFLSLGITALGSFLLISYFVVRFVRYLIAINCNCDLMQPQYLIISGILIVLMFALLFSCCMVALGEYKFRMANQTLDGSKFYLPRPQKSAVLCGITVITGKEDAKDTAQNMEEEIHLTPSVRRNHDDYYYDESSGPANEEN
– | binds | mKate2::3xFLAG::DRL-1 (enzyme, UniProt Q86ME2 1-589) MHSEEKYLHIPNNTKYPEIIVEEEEEDPSEEERSELSETDDVATPLRPSDTFPFKRRNSPCSIKMSEEHLKRLREIACPSPTPTQCSTVSKHEFQNWRINEDVMKDMMHIGTICERENVCKTSKYVYTATMASYTVTEWKLKEGNTPDEIEKISRTIEDLCQLRHKRLAPMYGYHWRLETELMVFRAHVPSGTVADLVKVSAIPQETAVRYIVHVIDALAYLHERKHVHGKLNASNLLLTISNDILLADPFIEGLPSAQKRRALLASPPEAFRSLESYPCLTPSSDIWSVGCVLVTMLTRYPPFLEHYMHFHGESLHRELVSEWCTRRQLIYSSQTLIPSASKEICELIDQIFNVDPENRPSAQNLLESHGSKSRKASLRNSLASLTTAKEPDPPKPIDDFYVEREDDEEHRKIEELRELAERGNNEGGFIPFIRWYMSRILIFSVLLVKWIGMVLCAALSLAAVAGGVFFAIFLIYNGIQIACQCSLNEGFVVLIALILLPIIILLTTLCCNNSLDRYHADVESGKVEKSRFVMKTPEKDVIVGGYILVEGSPDHDKPAEVPRKLGISEGLQSTMGNTFLGYGVDKIA
